In PubChem BioAssay AID504847 (National Center for Advancing Translational Sciences (NCATS), 2011):
About 3,700 (0.93%) of roughly 400,000 compounds were called active. The inconclusive results got no clear call from the source; some entries with a clear call stand among them for comparison. The call rests on the fitted dose curve; in most records, active means well fitted inhibition curve with a large enough effect; inconclusive means small, poorly fitted or top-dose-only effect, or another doubt; inactive means no such curve, though single readings can be large or run the other way. Potencies beside an inconclusive call are fits to weak or partial responses and may not hold up.

Amino acid sequences for entries named in this document (tags omitted). A change or cut given only in a name is not applied to a line headed by its entry.
UniProt P11473: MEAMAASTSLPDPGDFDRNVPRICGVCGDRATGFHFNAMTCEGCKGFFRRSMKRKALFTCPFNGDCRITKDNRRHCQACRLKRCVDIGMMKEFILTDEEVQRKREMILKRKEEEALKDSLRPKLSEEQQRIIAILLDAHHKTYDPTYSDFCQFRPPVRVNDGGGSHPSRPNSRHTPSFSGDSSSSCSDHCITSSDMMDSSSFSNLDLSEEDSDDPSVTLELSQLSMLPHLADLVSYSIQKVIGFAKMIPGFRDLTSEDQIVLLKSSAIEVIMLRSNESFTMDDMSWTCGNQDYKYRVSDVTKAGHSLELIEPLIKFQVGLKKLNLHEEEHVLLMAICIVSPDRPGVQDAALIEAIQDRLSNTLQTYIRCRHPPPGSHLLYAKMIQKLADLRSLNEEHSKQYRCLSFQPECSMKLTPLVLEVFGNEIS

Molecular target: Vitamin D3 receptor (Homo sapiens) (UniProt P11473)
Experiment: Inhibitors of the vitamin D receptor (VDR): qHTS
Settings: VDR-SRC2-3 peptide fluorescence polarization, 2 h; max response, negative = inhibition: hits give low values
Method in brief: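 FP read-out; VDR + SRC2-3 coactivator peptide; 23 nl compound by pintool; 2 h RT incubation; reagents held at 4 deg C, protected from light.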
On the % scale 0 is the no-effect control and ±100 the full control effect; potency means the concentration at half of the fitted maximal effect.

SMILES	Potency	max response, negative = inhibition
C=CCN1C=C/C(=C\C=C(C#N)C#N)c2ccccc21	inconclusive: 89.1 µM [inhibitor, single point]	
FC(F)(F)c1cnc(NNC(=S)Nc2ccccc2Cl)c(Cl)c1	inconclusive: 22.4 µM [inhibitor, full curve]	
CC1(CCc2ccc3c(c2)OCO3)NC(=O)c2ccccc2N1 (centres undefined)	inconclusive: 14.1 µM [inhibitor, partial curve, poor fit]	
C/C(CC1CC(COCC(C)C)OC1=O)=N\Nc1nc(-c2ccccc2)cs1 (centres undefined)	inconclusive: 79.4 µM [inhibitor, partial curve, poor fit]	
COc1ccccc1-c1nccc(NCc2cccs2)n1	inconclusive: 39.8 µM [inhibitor, partial curve]	
O=c1c(CCc2ccccc2)nc2cnc(N3CCNCC3)nc2n1CCc1ccccc1	inconclusive: 89.1 µM [inhibitor, single point]	
CCOc1ccc(-c2csc(N)c2C(=O)OC)cc1	inconclusive: 56.2 µM [inhibitor, partial curve, poor fit]	
O=C1C(Cl)=C(N2CCOCC2)C(=O)N1c1cccc(Cl)c1	active: 25.1 µM	
CCc1cccc(C)c1NC(=O)CN1C(=O)c2c(c3ccccc3n2C)C1c1ccc(OC)cc1 (centres undefined)		inactive: 0.712%
COc1ccc(OCC(=O)Sc2ccc(C)cc2)cc1	inconclusive: 56.2 µM [inhibitor, partial curve, poor fit]	
FC(F)(F)Oc1ccc(Nc2nc(N3CCOCC3)nc(N3CCOCC3)n2)cc1	inconclusive: 35.5 µM [inhibitor, partial curve, poor fit]	
COc1ccc(S(=O)(=O)Nc2ccc3c(c2)CCC3)cc1	active: 44.7 µM	
COc1cccc(-c2ccc(C#N)c(OC(=O)c3ccc(Cl)cc3)n2)c1		inactive: 9.59%
CC1=C(C(=O)OCCOC(C)C)C(c2cccc3ccccc23)NC(=O)N1 (centres undefined)	inconclusive: 89.1 µM [inhibitor, single point]	
COc1ccc(CNC(=O)COC(=O)C2=Cc3ccccc3OC2)cc1	inconclusive: 79.4 µM [inhibitor, partial curve, poor fit]	
Cc1ccc([C@H]2C(C#N)=C(N)Oc3cc(C)oc(=O)c32)o1	inconclusive: 89.1 µM [inhibitor, single point]	
Cc1ccc(C(c2nnnn2CC2CCCO2)N2CCN(C)CC2)cc1 (centres undefined)		inactive: -5.46%
O=C1CN(Cc2ccccc2)S(=O)(=O)c2ccccc21	inconclusive: 63.1 µM [inhibitor, partial curve, poor fit]	
COc1ccc(-c2nnc3ccc(SCC(=O)N4CCOCC4)nn23)cc1		inactive: -2.53%
O=C(Nc1ccc(N2CCOCC2)c(S(=O)(=O)Nc2ccc(Cl)cc2)c1)c1cnccn1	active: 79.4 µM	
O=C1/C(=C\c2ccc(O)c(O)c2)Oc2cc(O)ccc21	inconclusive: 79.4 µM [inhibitor, partial curve, poor fit]	
Cc1ccccc1NC(=O)Cc1nc(-c2ccc3ccccc3c2)cs1	inconclusive: 1 µM [inhibitor, full curve, poor fit]	

Filtered by structure, the compounds so far with a carbonyl joined to an NH by a bond outside any ring.
SMILES	Potency	max response, negative = inhibition
CCc1cccc(C)c1NC(=O)CN1C(=O)c2c(c3ccccc3n2C)C1c1ccc(OC)cc1 (centres undefined)		inactive: 0.712%
COc1ccc(CNC(=O)COC(=O)C2=Cc3ccccc3OC2)cc1	inconclusive: 79.4 µM [inhibitor, partial curve, poor fit]	
O=C(Nc1ccc(N2CCOCC2)c(S(=O)(=O)Nc2ccc(Cl)cc2)c1)c1cnccn1	active: 79.4 µM	
Cc1ccccc1NC(=O)Cc1nc(-c2ccc3ccccc3c2)cs1	inconclusive: 1 µM [inhibitor, full curve, poor fit]	

More entries:

SMILES	Potency	max response, negative = inhibition
COc1cc(/C=C/C(=O)c2ccc3c(c2)OCO3)cc(Cl)c1O	inconclusive: 39.8 µM [inhibitor, single point]	
Cc1c(C(=O)Nc2nonc2-c2ccc(F)cc2)oc2ccc(F)cc12	inconclusive: 25.1 µM [inhibitor, full curve, poor fit]	
C=CCOc1ccc(/C=C2\SC(=S)N(C(C(=O)O)c3ccccc3)C2=O)cc1 (centres undefined)	active: 79.4 µM	
Cc1c(C(=O)N/N=C/c2ccc(-c3ccccc3[N+](=O)[O-])o2)sc(N)c1C#N	inconclusive: 89.1 µM [inhibitor, single point]	
CC(C(=O)Nc1ccccc1-c1ccccc1)N1CCN(Cc2ccccc2)CC1 (centres undefined)	inconclusive: 25.1 µM [inhibitor, single point]	
CCc1cc(C(=O)c2ccccc2OC)c(N)s1		inactive: -17.2%
COc1ccc(CN(Cc2ccc(C(=O)O)cc2)C(=S)Nc2ccccc2C)cc1OC		inactive: 4.29%
O=C(O)c1cc(-c2cccc([N+](=O)[O-])c2)n[nH]1	inconclusive: 89.1 µM [inhibitor, single point]	
C=CCn1c(NS(=O)(=O)c2ccccc2)c(S(=O)(=O)c2ccc(C)cc2)c2nc3ccccc3nc21	inconclusive: 89.1 µM [inhibitor, partial curve, poor fit]	
O=C(N/N=C/c1coc2ccccc2c1=O)c1cc(Br)c(O)c(Br)c1	inconclusive: 89.1 µM [inhibitor, single point]	
COc1ccc(Cl)cc1NC(=O)Cn1nc(-c2ccc(C)cc2)n(C)c1=S	inconclusive: 79.4 µM [inhibitor, single point]	
COc1cccc(O)c1O	active: 50.1 µM	
COc1ccccc1CNc1nc(-c2ccc(N(C)C)cc2)nc2ccccc12	inconclusive: 70.8 µM [inhibitor, partial curve]	
CCCCC1=NN2C(=N)CC(=O)N=C2S1		inactive: -20.7%
CCOc1ccc(NCC2CCOC(C)(C)C2)cc1 (centres undefined)		inactive: 19.5%
COc1ccc(NC(=S)N(CCC(C)C)C2CCN(C(C)C)CC2)cc1Cl	inconclusive: 39.8 µM [inhibitor, single point]	
COc1cc(CO)ccc1OCc1nnnn1-c1ccc(C)cc1	inconclusive: 25.1 µM [inhibitor, partial curve]	
c1cncc(CNc2ccnc(-c3ccc4c(c3)OCO4)n2)c1	inconclusive: 79.4 µM [inhibitor, single point]	
CC1=NOC(=O)/C1=C\c1ccc(-c2ccccc2Br)o1	active: 12.6 µM	
COc1c(/C=C2\SC(=Nc3ccccc3Cl)NC2=O)cccc1[N+](=O)[O-]		inactive: -17.2%
O=c1c(-c2cc(F)cc(F)c2)nc2cnc(N3CCOCC3)nc2n1C1CC1		inactive: -18%
CC(=O)c1cccc(OCC(O)CNCCOc2ccc(C)cc2)c1 (centres undefined)		inactive: -18.2%
